Results are given in words; binding and its absence hold for the method and conditions named. Binding seen in cells or lysates may run through a third protein. Some entries that bind do so weakly or less than the wild type. For part of these data: Where a sequence is shown, tags or fusion partners need not be part of it.

The target in test [1] is T1, AnxA6 overexpressed in CHO-A6 cells (UniProt P48037).
T1 sequence: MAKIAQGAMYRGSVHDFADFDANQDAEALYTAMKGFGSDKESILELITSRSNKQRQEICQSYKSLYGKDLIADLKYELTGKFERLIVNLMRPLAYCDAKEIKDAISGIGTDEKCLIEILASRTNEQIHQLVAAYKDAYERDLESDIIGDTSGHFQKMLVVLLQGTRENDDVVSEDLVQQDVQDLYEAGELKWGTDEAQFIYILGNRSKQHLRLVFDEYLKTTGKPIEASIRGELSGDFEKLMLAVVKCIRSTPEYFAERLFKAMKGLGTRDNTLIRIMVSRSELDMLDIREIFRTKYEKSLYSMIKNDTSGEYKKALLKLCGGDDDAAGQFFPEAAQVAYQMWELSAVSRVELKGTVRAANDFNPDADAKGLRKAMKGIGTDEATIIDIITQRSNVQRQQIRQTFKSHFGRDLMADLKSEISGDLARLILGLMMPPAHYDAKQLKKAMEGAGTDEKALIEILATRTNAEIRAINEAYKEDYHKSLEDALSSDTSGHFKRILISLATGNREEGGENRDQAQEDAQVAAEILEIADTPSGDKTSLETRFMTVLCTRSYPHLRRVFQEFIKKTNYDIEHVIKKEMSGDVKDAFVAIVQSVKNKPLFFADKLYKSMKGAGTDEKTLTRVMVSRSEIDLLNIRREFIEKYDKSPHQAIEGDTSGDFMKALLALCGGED
Kind of test: co-IP; lysates of CHO-WT, CHO-A6, CHO M12 and CHO 2-2 cells (50 mM Tris, 150 mM NaCl, 1% Triton X-100, 0.1 mM CaCl2, pH 7.4); anti-AnxA6, anti-TBC1D15 or control antibody, Protein A-agarose, 4 °C; western blotting.

The target of test [2] is T2, GST–AnxA6 fusion protein (UniProt P48037).
T2 sequence: T1 sequence
Kind of test: pull-down; glutathione Sepharose 4B beads coated with purified GST–AnxA6 (40–70 µg), incubated with post-nuclear supernatants of cell lysates (400–700 µg; CHO lines or transfected COS-1) for 2 h at 4 °C in 50 mM Tris, 150 mM NaCl, 1% Triton X-100, 0.1 mM CaCl2, pH 7.3; western blotting; only the target purified.

For test [3], the target named is T3, TBC1D15, endogenous in mouse liver (mouse (endogenous in mouse liver)) (UniProt Q9CXF4).
T3 sequence: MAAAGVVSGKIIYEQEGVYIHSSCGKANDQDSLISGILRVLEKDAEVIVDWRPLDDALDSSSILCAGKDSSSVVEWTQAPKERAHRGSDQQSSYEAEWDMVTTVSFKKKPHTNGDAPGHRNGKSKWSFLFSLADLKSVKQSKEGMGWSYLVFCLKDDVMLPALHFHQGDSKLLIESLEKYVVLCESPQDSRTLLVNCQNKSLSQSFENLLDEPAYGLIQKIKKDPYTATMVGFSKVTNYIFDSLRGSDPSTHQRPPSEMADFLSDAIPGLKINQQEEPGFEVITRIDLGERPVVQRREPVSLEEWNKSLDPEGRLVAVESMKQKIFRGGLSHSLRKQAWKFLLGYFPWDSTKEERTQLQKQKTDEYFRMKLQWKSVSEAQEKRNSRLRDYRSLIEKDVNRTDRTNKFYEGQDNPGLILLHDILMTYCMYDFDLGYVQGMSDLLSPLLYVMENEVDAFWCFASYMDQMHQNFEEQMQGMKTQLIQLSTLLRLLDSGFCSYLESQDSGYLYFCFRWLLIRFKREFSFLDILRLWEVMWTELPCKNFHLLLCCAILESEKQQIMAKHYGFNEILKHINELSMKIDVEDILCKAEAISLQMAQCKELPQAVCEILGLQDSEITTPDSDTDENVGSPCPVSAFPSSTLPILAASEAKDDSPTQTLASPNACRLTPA
Kind of test: co-IP; mouse liver homogenates (10 mM Tris, 150 mM NaCl, 5 mM EDTA, pH 7.5), pre-cleaned with Protein A-agarose; anti-AnxA6, anti-TBC1D15 or control antibody; western blotting.

The target in test [4] is T4, AnxA6, endogenous in mouse liver (mouse (endogenous in mouse liver)) (UniProt P14824).
T4 sequence: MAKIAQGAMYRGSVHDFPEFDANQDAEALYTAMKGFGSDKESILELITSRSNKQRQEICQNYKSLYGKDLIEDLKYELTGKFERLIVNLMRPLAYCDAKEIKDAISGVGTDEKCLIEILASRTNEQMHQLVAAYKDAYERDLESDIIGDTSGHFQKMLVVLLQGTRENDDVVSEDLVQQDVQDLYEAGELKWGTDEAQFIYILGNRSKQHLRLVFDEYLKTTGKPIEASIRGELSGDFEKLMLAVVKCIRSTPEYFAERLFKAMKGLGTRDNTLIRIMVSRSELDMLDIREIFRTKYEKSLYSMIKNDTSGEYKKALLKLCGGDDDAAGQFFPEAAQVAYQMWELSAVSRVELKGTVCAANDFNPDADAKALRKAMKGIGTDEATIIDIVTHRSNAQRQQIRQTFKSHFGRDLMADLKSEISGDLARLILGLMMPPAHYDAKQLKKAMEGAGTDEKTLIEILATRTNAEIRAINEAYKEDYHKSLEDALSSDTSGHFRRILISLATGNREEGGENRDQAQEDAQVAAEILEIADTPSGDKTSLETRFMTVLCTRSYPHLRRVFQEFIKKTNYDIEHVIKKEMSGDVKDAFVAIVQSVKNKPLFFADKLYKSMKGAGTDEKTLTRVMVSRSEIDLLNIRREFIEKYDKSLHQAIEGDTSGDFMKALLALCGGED
Described as above.

Test [5] concerns the target TBC1D15, endogenous in CHO cells (Chinese hamster (endogenous in CHO)). Kind of test: co-IP; lysates of CHO-WT, CHO-A6, CHO M12 and CHO 2-2 cells (50 mM Tris, 150 mM NaCl, 1% Triton X-100, 0.1 mM CaCl2, pH 7.4); anti-AnxA6, anti-TBC1D15 or control antibody, Protein A-agarose, 4 °C; western blotting.

Take “TBC1D15, endogenous in CHO cells (from UniProt A0A8C2MJC3 1-673)”: the binding entry in test [1] and in test [2] was “binds” throughout.

B1: AnxA6, endogenous in mouse liver (protein, UniProt P14824 1-673)
chain: T4 sequence
In the case of B1, the binding result in test [3] was “binds”.

B2: YFP–TBC1D15(1–200) deletion mutant (domain or fragment, UniProt Q8TC07-2 1-200)
chain: MAAAGVVSGKIIYEQEGVYIHSSCGKTNDQDGLISGILRVLEKDAEVIVDWRPLDDALDSSSILYARKDSSSVVEWTQAPKERGHRGSEHLNSYEAEWDMVNTVSFKRKPHTNGDAPSHRNGKSKWSFLFSLTDLKSIKQNKEGMGWSYLVFCLKDDVVLPALHFHQGDSKLLIESLEKYVVLCESPQDKRTLLVNCQNK
On to B2, for which the binding entry in test [2] is recorded as “binds”.

B3: TBC1D15, endogenous in mouse liver (protein, UniProt Q9CXF4 1-671)
chain: T3 sequence
Regarding B3, the binding entry in test [4] is “binds”.

B4: AnxA6 overexpressed in CHO-A6 cells (protein, UniProt P48037 1-673)
chain: T1 sequence
Consider B4, for which the binding entry in test [5] is “binds”.

For the origin of these results see article PMC7326902.
